PubChem BioAssay AID527 (NMMLSC, 2006)
The list shows a part of the results.

Assay: S. aureus quorum sensing inhibitors, primary screen, RNAIII-GFP reporter, flow cytometry (AID 527);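 note: 0% = AIP-stimulated control and 100% = unstimulated bacteria without AIP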
Conditions: S. aureus RN6390 RNAIII-GFP reporter, AIP-induced, flow cytometry 3 h; measured here: inhibition of GFP MFI; at 2 µM; stronger effect = higher value

| Structure (SMILES) | inhibition [%] |
| --- | --- |
| Cc1ccc(C)c(NP(C)(=O)Oc2ccccc2)c1 (centres undefined) | 6.4 |
| CCOP1(=S)c2c(C)nn(CCC#N)c2N=C(c2ccccc2F)N1C (centres undefined) | -2.9 |
| Cc1nn(-c2ccccc2)c2c1P(=O)(N1CCOCC1)N(C)C(c1ccccc1)=N2 (centres undefined) | 14.4 |
| Clc1n[nH]nc1-c1nn[nH][15n]1 | 5.8 |
| O=C(COc1ccccc1)OC1CN2CCC1CC2 (centres undefined) | -19.2 |
| COP1(=S)c2c(C)nn(CCC#N)c2N=C(c2ccc(F)cc2)N1C (centres undefined) | -12.3 |
| CP(=S)(Nn1cnnc1)Oc1ccccc1 (centres undefined) | -4.7 |
| CP(=O)(Nc1ccccn1)Oc1ccccc1 (centres undefined) | 4.8 |
| Cc1nc2ccc3ccccc3c2o1.O=[N+]([O-])c1cc([N+](=O)[O-])c(O)c([N+](=O)[O-])c1 | 4.4 |
| CCc1nc2c(n1)c1c(non1O)c1c2no[n+]1[O-] | -6.3 |
| O=P(Nc1nccs1)(c1ccccc1)c1ccccc1 | -6.3 |
| Cc1ccccc1NP(C)(=O)Nc1ccccc1C | -5 |
| CP(=O)(Nc1ccc2c(c1)OCCO2)Oc1ccccc1 (centres undefined) | -7.3 |
| CN(C)CCOC(=O)C(O)(c1ccccc1)C1CCCCC1 (centres undefined) | 1 |
